Results on 26 compounds are retold here after PubChem BioAssay AID328 (DTP/NCI, 2004).

The list does not hold the whole screen: it is rich in T/C values a quarter to a half above the control, in often repeated tests (any T/C) and in doses without a T/C. Further doses and runs are listed elsewhere. T/C: endpoint of the treated group in % of that of the vehicle group. Some entries give survivors of the animals treated and no T/C: the source files T/C as zero there, which appears to mark a toxic dose or a test without result, not a measured value. Some doses without a T/C left all or most animals alive at the check, yet need not have been tolerated: the source hardly ever lists a survival T/C far under the control, and the zero likely stands for such cases as well. Counts of survivors are from the toxicity check (mostly the fifth day) where no day follows; animals may have died later. Schedule codes are those of the source, taken here to give the interval after Q, in days (D) or hours (H), and the number of doses after X. Counts like (3×) say how often a value occurs here. Where survival is the endpoint, the PubChem record calls one and a half times the control and up active, and a quarter to a half above the control has no call in these data; cut-offs in other NCI protocols can differ. Some entries were tested several times; their values stand side by side, smallest first. Some T/C values carry the count of animals alive at the toxicity check (mostly the fifth day); without a count, all were alive then.

For the assay, the system named is BDF1 mice, P388 leukemia ip, median survival T/C. The assay can be described thus: NCI In Vivo Anticancer Drug Screen. Data for tumor model P388 Leukemia (intraperitoneal) in B6D2F1 (BDF1) mice. The conditions noted are these: T/C endpoint: median survival time, higher T/C = longer survival. The method in brief: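 Each value expresses how treatment altered survival: treated-mouse outcome over vehicle-mouse outcome, both groups bearing the transplanted tumour.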

Where [1] appears, read: dose: 200.0 mg/kg/injection, schedule: Q04DX003 (ip), vehicle: saline with Tween-80.
The mark [2] stands for this setting: dose: 400.0 mg/kg/injection, schedule: Q01DX009 (ip), vehicle: saline with Tween-80.
The mark [3] stands for this setting: dose: 400.0 mg/kg/injection, schedule: Q04DX003 (ip), vehicle: saline with Tween-80.
The mark [4] stands for this setting: dose: 25.0 mg/kg/injection, schedule: Q01DX009 (ip), vehicle: saline with Tween-80.
[5] abbreviates: dose: 50.0 mg/kg/injection, schedule: Q01DX009 (ip), vehicle: saline with Tween-80.
The mark [6] stands for this setting: dose: 400.0 mg/kg/injection, schedule: Q04DX003 (ip), vehicle: saline.
The mark [7] stands for this setting: dose: 9.0 mg/kg/injection, schedule: Q01DX009 (ip), vehicle: saline.
Where [8] appears, read: dose: 12.0 mg/kg/injection, schedule: Q01DX009 (ip), vehicle: saline.
[9] abbreviates: dose: 12.5 mg/kg/injection, schedule: Q04DX003 (ip), vehicle: Klucel (hydroxypropylcellulose) (HPC).

Regarding `CCCCCCCCCCN1CCOCCOCCN(CCCCCCCCCC)CCOCCOCC1`, the survivor count (dose: 12.5 mg/kg/injection, schedule: Q01DX005 (ip), vehicle: saline with Tween-80) was 2 of 5.
As to `N#CN1CC(C(=O)N2CCCCC2)C=C2c3cccc4[nH]cc(c34)CC21` (stereo not given), the survivor count is, setting by setting: (dose: 25.0 mg/kg/injection, schedule: Q01DX009 (ip), vehicle: saline) 5 of 6; (dose: 100.0 mg/kg/injection, schedule: Q01DX009 (ip), vehicle: saline) 5 of 6.
On to `c1ccc(N/N=C(/C[n+]2cc3ccccc3c3ccccc32)c2ccccc2)cc1`, for which, under “dose: 50.0 mg/kg/injection, schedule: Q01DX009 (ip), vehicle: Klucel (hydroxypropylcellulose) (HPC)”, the T/C was 128 % of control.
`Cc1c2oc3c(C)c([N+](=O)[O-])cc(C(=O)NC4C(=O)NC(C(C)C)C(=O)N5CCCC5C(=O)N(C)CC(=O)N(C)C(C(C)C)C(=O)OC4C)c3nc-2c(C(=O)NC2C(=O)NC(C(C)C)C(=O)N3CCCC3C(=O)N(C)CC(=O)N(C)C(C(C)C)C(=O)OC2C)c(N)c1=O` (stereo not given): the T/C is 143 % of control (dose: 100.0 micrograms/kg/injection, schedule: Q01DX009 (ip), vehicle: saline + alcohol); 132 % of control (dose: 225.0 micrograms/kg/injection, schedule: Q04DX003 (ip), vehicle: saline + alcohol); 128 % of control (dose: 300.0 micrograms/kg/injection, schedule: Q04DX003 (ip), vehicle: saline + alcohol). Also, the survivor count is, setting by setting: (dose: 200.0 micrograms/kg/injection, schedule: Q01DX009 (ip), vehicle: saline + alcohol) 8 of 8; (dose: 300.0 micrograms/kg/injection, schedule: Q01DX009 (ip), vehicle: saline + alcohol) 8 of 8; (dose: 400.0 micrograms/kg/injection, schedule: Q01DX009 (ip), vehicle: saline + alcohol) 8 of 8; (dose: 900.0 micrograms/kg/injection, schedule: Q04DX003 (ip), vehicle: saline + alcohol) 8 of 8.
As to `CCN(CC)CCCC(C)NC(=O)c1cc(=O)[nH]c(=O)[nH]1` (stereo not given), the survivor count is, setting by setting: (dose: 200.0 mg/kg/injection, schedule: Q01DX009 (ip), vehicle: water) 4 of 6; (dose: 400.0 mg/kg/injection, schedule: Q04DX003 (ip), vehicle: water) 1 of 6.
`CSc1cc(C(N)=O)c2c(N)nc(SC)nc2n1`: the survivor count (dose: 200.0 mg/kg/injection, schedule: Q01DX001 (ip), vehicle: saline with Tween-80) is 6 of 6.
`O=C1Cc2ccccc21`: the survivor count is on record as 0 of 6 under setting [1] and 6 of 6 under setting [2]. The T/C under setting [3] is 108, 110, 113, 145 % of control.
For the compound `COc1ccc(N2C(=O)CC(Sc3ccccc3N)C2=O)cc1` (stereo not given), the survivor count (dose: 200.0 mg/kg/injection, schedule: Q01DX001 (ip), vehicle: Klucel (hydroxypropylcellulose) (HPC)) is reported as 6 of 6.
Take `COC(OC)c1nc(SC)[nH]c(=O)c1C`: the survivor count under setting [2] is listed as 6 of 6.
`[Cl][Hg][CH2]CC1CC=CCC1` (stereo not given): the survivor count under setting [4] is on record as 2 of 6.
Take `CCN(CCO)CCNc1ccc(C)c2sc3ccccc3c(=O)c12`: the T/C reads like this: under setting [5], 145 % of control; (dose: 150.0 mg/kg/injection, schedule: Q04DX003 (ip), vehicle: saline with Tween-80) 146 % of control.
As to `C=C(C)C(=O)NCCCCCC(=O)Oc1ccc([N+](=O)[O-])cc1`, where the note is “dose: 100.0 mg/kg/injection, schedule: Q01DX009 (ip), vehicle: saline with Tween-80”, the survivor count is 6 of 6.
As to `CCOC(=S)S`, the survivor count (dose: 400.0 mg/kg/injection, schedule: Q01DX009 (ip), vehicle: saline) is on record as 2 of 6.
As to `CC1(C)N=C(N)N=C(N)N1c1ccc(OCCOc2ccc(S(=O)(=O)F)cc2)c(Cl)c1`, where the note is “dose: 33.0 mg/kg/injection, schedule: Q04DX003 (ip), vehicle: saline with Tween-80”, the T/C is 137 % of control. Moreover, the survivor count is, setting by setting: (dose: 100.0 mg/kg/injection, schedule: Q04DX003 (ip), vehicle: saline with Tween-80) 6 of 6; (dose: 200.0 mg/kg/injection, schedule: Q01DX009 (ip), vehicle: saline with Tween-80) 3 of 6; under setting [3], 0 of 6.
For the compound `C[C@@H]1C[C@@]2(C)[C@@H](CC[C@@H]3[C@@H]2CC[C@]2(C)OC(=O)CC[C@@H]32)CC1=O`, the T/C (dose: 400.0 mg/kg/injection, schedule: Q04DX003 (ip), vehicle: alcohol) was 125 % of control. For the same compound, the survivor count under setting [6] was 6 of 6.
Turning to `O=C(NC(=O)c1c(F)cccc1F)Nc1ccc(Cl)nc1`, the survivor count runs as follows: under setting [4], 6 of 6; under setting [5], 6 of 6.
For `CC12CCC(=O)C=C1CCC1C2CCC2(C)C(OP(=O)(N3CC3)N3CC3)CCC12` (stereo not given), the T/C is 128 % of control under setting [1] and 144 % of control under setting [3].
Take `O=C1NC(c2ccccc2Cl)Nc2ccccc21` (stereo not given): the T/C (dose: 400.0 mg/kg/injection, schedule: Q01DX009 (ip), vehicle: Klucel (hydroxypropylcellulose) (HPC)) is 135 % of control (2×).
`COC(=O)C1(C)CCC(c2ccc(OC)cc2)CC1=O` (stereo not given): under setting [6], the survivor count is on record as 6 of 6.
In the case of `FC(F)(F)COP1SCCS1`, the survivor count (dose: 100.0 mg/kg/injection, schedule: Q01DX005 (ip), vehicle: saline with Tween-80) was 0 of 5.
Turning to `CC[C@H](CC[C@@H](C)[C@H]1CC[C@H]2[C@@H]3CC=C4C[C@@H](OC(=O)CN5CCNCC5)CC[C@]4(C)[C@H]3CC[C@]12C)C(C)C`, the survivor count (dose: 200.0 mg/kg/injection, schedule: Q01DX009 (ip), vehicle: Klucel (hydroxypropylcellulose) (HPC)) is given as 2 of 6.
As for `COc1ccc(C=O)c(O)c1`, the survivor count (dose: 200.0 mg/kg/injection, schedule: Q04DX003 (ip), vehicle: Klucel (hydroxypropylcellulose) (HPC)) was 6 of 6.
Turning to `CN(C)P(Cl)(Cc1ccccc1)(c1ccccc1)c1ccccc1`, the T/C is 126 % of control (dose: 6.0 mg/kg/injection, schedule: Q01DX009 (ip), vehicle: saline); 127 % of control under setting [7]; 130 % of control [4 of 6 alive] under setting [8]. The survivor count was 5 of 6 under setting [7]; 0 of 6 (2×) under setting [8]; 0 of 6 (2×) (dose: 18.0 mg/kg/injection, schedule: Q01DX009 (ip), vehicle: saline).
Regarding `CC1(C)C2CCC(CN)C1C2` (stereo not given), the T/C (dose: 50.0 mg/kg/injection, schedule: Q01DX009 (ip), vehicle: other) was 134 % of control. Under “dose: 200.0 mg/kg/injection, schedule: Q01DX009 (ip), vehicle: other”, the survivor count is 0 of 6.
On to `ClCCN(CCCl)c1cc(OCc2ccccc2)cc(OCc2ccccc2)c1`, for which the survivor count by setting is: (dose: 25.0 mg/kg/injection, schedule: Q01DX009 (ip), vehicle: water) 6 of 6; (dose: 50.0 mg/kg/injection, schedule: Q01DX009 (ip), vehicle: water) 6 of 6; (dose: 100.0 mg/kg/injection, schedule: Q01DX009 (ip), vehicle: water) 6 of 6; (dose: 400.0 mg/kg/injection, schedule: Q01DX009 (ip), vehicle: water) 6 of 6.
On to `C#CC[As+](c1ccccc1)(c1ccccc1)c1ccccc1`, for which the survivor count (dose: 6.25 mg/kg/injection, schedule: Q01DX009 (ip), vehicle: Klucel (hydroxypropylcellulose) (HPC)) was 5 of 5; the survivor count (dose: 12.5 mg/kg/injection, schedule: Q01DX009 (ip), vehicle: Klucel (hydroxypropylcellulose) (HPC)) is 5 of 6; the survivor count under setting [9] is given as 5 of 6; the survivor count (dose: 18.0 mg/kg/injection, schedule: Q04DX003 (ip), vehicle: Klucel (hydroxypropylcellulose) (HPC)) is listed as 6 of 6; the survivor count (dose: 25.0 mg/kg/injection, schedule: Q01DX009 (ip), vehicle: Klucel (hydroxypropylcellulose) (HPC)) was 3 of 6; the survivor count (dose: 25.0 mg/kg/injection, schedule: Q04DX003 (ip), vehicle: Klucel (hydroxypropylcellulose) (HPC)) was 4 of 6. Besides, the T/C is 127 and 130 % of control (dose: 6.25 mg/kg/injection, schedule: Q04DX003 (ip), vehicle: Klucel (hydroxypropylcellulose) (HPC)); 126 and 130 % of control (dose: 8.0 mg/kg/injection, schedule: Q04DX003 (ip), vehicle: Klucel (hydroxypropylcellulose) (HPC)); 127 % of control under setting [9].
